# Assay results from PubChem BioAssay AID2662 (National Center for Advancing Translational Sciences (NCATS), 2010).
# Protein sequences, listed by entry. Tags and fused reporters are not part of them.
# UniProt Q03164, whole entry, looked up: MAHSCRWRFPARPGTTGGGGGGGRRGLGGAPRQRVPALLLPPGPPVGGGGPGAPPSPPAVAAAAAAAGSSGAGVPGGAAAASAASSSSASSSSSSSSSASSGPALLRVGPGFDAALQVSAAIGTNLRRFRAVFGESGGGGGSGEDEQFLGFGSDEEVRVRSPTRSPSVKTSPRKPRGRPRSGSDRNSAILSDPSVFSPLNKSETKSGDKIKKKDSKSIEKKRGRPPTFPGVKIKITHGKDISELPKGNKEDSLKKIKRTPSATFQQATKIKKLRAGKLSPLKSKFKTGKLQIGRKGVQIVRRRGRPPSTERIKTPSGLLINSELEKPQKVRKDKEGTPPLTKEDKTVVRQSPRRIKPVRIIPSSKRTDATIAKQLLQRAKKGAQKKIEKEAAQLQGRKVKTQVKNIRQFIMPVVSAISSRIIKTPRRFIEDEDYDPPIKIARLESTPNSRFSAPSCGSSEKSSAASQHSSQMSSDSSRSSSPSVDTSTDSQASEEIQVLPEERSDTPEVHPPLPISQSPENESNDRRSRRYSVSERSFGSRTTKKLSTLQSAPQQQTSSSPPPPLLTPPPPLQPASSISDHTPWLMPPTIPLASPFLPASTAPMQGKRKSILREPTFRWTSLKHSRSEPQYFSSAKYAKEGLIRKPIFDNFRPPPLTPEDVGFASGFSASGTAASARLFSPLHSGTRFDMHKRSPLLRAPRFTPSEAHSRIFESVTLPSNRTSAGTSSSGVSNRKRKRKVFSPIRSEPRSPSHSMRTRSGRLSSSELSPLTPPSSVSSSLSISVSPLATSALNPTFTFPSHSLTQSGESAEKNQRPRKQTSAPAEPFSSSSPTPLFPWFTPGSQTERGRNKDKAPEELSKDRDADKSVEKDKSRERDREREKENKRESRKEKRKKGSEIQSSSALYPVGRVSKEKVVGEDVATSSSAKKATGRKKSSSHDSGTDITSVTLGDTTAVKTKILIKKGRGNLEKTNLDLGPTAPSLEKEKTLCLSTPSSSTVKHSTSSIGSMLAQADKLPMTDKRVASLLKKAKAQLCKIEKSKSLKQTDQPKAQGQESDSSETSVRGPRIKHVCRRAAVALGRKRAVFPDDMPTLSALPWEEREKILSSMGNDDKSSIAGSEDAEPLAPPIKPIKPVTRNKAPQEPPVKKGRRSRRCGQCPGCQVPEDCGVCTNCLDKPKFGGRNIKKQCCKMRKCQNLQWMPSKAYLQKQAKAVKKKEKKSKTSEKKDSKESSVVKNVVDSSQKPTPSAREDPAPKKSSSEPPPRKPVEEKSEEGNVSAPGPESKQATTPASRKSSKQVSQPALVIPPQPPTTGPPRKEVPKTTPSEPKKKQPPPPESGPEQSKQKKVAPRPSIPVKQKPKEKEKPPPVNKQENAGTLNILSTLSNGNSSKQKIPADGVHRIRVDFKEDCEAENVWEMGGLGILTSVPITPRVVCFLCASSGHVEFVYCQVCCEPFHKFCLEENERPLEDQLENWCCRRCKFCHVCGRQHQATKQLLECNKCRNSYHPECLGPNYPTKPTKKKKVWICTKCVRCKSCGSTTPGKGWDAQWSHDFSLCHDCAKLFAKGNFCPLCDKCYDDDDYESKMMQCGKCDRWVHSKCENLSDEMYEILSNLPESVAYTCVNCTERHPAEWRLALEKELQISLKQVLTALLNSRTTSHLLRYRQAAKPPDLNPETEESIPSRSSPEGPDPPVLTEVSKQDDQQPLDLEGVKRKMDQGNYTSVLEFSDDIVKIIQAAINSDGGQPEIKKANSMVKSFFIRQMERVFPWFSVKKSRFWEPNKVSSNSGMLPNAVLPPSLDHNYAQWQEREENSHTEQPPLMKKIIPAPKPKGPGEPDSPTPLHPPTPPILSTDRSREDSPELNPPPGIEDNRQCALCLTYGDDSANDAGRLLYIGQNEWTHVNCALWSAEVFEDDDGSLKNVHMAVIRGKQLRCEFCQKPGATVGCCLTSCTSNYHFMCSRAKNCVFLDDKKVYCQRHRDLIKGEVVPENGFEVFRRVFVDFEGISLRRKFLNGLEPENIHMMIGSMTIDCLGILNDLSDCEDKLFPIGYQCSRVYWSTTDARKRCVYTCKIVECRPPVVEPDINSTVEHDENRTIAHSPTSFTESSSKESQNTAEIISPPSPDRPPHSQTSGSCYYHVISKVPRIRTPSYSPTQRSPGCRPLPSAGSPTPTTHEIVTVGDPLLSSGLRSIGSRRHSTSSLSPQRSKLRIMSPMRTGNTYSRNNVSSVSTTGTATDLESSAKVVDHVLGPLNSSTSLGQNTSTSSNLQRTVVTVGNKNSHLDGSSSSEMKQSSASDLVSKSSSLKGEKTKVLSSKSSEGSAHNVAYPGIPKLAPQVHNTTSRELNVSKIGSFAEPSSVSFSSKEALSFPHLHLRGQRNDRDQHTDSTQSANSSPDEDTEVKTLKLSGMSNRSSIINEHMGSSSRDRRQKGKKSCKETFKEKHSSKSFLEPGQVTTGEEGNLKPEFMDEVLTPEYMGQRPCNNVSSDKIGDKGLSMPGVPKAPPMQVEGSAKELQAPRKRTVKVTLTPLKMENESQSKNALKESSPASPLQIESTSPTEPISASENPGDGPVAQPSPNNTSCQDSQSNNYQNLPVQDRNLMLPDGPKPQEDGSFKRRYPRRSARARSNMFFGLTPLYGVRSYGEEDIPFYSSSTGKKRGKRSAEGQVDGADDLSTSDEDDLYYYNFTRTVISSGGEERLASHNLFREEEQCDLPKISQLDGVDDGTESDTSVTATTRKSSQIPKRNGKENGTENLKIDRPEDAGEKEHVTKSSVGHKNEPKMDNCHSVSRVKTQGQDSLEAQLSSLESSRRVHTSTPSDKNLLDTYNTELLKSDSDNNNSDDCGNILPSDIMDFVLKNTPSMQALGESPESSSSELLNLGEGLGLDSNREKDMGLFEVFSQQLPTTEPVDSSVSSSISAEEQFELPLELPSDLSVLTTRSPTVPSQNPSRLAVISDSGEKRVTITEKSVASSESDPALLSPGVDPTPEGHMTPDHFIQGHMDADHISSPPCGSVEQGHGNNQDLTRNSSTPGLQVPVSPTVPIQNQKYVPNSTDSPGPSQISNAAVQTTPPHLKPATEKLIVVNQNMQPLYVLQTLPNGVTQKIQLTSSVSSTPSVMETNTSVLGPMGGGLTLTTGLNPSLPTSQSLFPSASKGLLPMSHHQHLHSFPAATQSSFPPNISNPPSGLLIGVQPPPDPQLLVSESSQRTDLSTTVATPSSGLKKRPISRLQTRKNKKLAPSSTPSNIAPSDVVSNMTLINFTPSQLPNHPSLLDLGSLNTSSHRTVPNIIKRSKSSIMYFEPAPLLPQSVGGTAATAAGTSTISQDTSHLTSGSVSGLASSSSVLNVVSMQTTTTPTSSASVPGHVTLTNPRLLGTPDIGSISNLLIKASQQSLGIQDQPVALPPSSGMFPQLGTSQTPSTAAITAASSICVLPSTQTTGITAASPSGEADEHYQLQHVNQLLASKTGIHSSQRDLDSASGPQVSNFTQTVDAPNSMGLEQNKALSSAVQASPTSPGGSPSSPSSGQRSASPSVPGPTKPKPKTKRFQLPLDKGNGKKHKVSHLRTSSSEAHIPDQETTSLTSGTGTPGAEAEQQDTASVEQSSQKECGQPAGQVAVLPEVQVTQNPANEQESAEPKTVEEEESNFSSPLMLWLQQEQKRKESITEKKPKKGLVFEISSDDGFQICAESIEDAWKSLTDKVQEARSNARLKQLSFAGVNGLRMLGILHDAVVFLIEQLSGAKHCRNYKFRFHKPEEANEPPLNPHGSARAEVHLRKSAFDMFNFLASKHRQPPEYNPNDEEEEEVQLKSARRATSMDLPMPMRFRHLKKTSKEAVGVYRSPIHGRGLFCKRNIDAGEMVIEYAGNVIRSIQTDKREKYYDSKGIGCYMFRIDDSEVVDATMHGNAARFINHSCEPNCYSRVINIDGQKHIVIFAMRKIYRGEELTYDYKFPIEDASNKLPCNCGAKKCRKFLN
# About 110 (0.038%) of roughly 290,000 compounds were called active. The shares of active, inactive and inconclusive entries below differ from those in the screen. Calls follow the shape of the dose curve; as a rule, active = well fitted inhibition curve with a large enough effect in the polarisation, with a control signal flat (not every such curve was filed as active); inconclusive = small, poorly fitted or top-dose-only effect, or effect the other way, or a change in a side signal; inactive = no such curve, though single readings can be large or run the other way; the % refers to the polarisation. Potencies of inconclusive entries are doubtful fits and often do not repeat. “Side channel” marks fits to a control or component signal instead of the main read-out.
# Molecular target: Histone-lysine N-methyltransferase 2A (Homo sapiens) (UniProt Q03164)
# Test: qHTS Fluorescence Polarization Assay for Inhibitors of MLL CXXC domain - DNA interaction
# Details: MLL-CXXC / FITC-HOXA9 DNA fluorescence polarization; series mostly up to 115 µM
# Procedure, shortened: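 Fluorescence polarization: 7 uM MLL-CXXC (stock) preincubated 5 min with compounds, then 50 nM fluorescein-HOX-A9 DNA (stock) added; 30 min ambient. Buffer 50 mM Tris-HCl pH 7.5, 50 mM NaCl, 1 mM DTT, 0.05% BSA.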
# Potency is read from the fitted curve at half-maximal effect.
row,SMILES,Potency
1,CCOC(=O)c1c(N)ssc1=S,"inconclusive: 3.16 µM [fluorescent, side channel, full curve, poor fit]"
2,Cc1cc(C)nc(Nc2ccc(Br)cc2C(=O)O)n1,"inconclusive: 79.4 µM [fluorescent, side channel, single point]"
3,COc1ccccc1/C=C/C(=O)Nc1ccc(N2CCOCC2)cc1,"inconclusive: 10 µM [fluorescent, side channel, full curve, poor fit]"
4,CCN(CC)C(=O)COc1coc(CN2CCN(c3ccccc3)CC2)cc1=O,"inconclusive: 10 µM [fluorescent, side channel, full curve, poor fit]"
5,COc1ccc2c(c1)c(=O)oc1c(C)c(OC(C)C(=O)N[C@@H](Cc3c[nH]c4ccc(O)cc34)C(=O)O)ccc12 (stereo partly drawn),"inconclusive: 56.2 µM [quencher, side channel, single point]"
6,CCNc1c(NS(=O)(=O)c2ccc(C3CCCCC3)cc2)c(=O)oc2ccccc12,"inconclusive: 7.94 µM [fluorescent, side channel, partial curve]"
7,CCOc1cc(S(=O)(=O)Nc2ncn[nH]2)ccc1Br,"inconclusive: 14.1 µM [fluorescent, side channel, single point]"
8,CC1=NN(c2ccccc2)C(=O)/C1=C\C=C1/N(C)c2ccccc2C1(C)C,inactive
9,C[N+]1(C2CCC3CCCC2C3O)CCCC1 (stereo not drawn),inactive
10,COCCCNc1c2c3c(cccc3[nH]c1=O)C(=O)c1ccccc1-2,"inconclusive: 0.398 µM [fluorescent, side channel, full curve]"
11,Cc1ccc(C)c2nc3sc(C(=O)N4CCCc5ccccc54)c(N)c3cc12,"inconclusive: 35.5 µM [fluorescent, partial curve]"
12,Cc1ccc(-n2cnc(=O)c3cccnc32)cc1,inactive
13,COc1ccc(C(=O)N2CCC(n3nccc3NC(=O)C3CC3)CC2)cc1F,"inconclusive: 8.91 µM [quencher, side channel, partial curve]"
14,Cc1nnc(N/N=C/c2cc([N+](=O)[O-])c(N3CCC(C)CC3)cc2N2CCC(C)CC2)n1N,"inconclusive: 28.2 µM [quencher, side channel, partial curve]"
15,CC(C)(C)[C@H]1C=C(C(=O)NC2CC2)O[C@@H](OCCCCO)C1,"inconclusive: 50.1 µM [inhibitor, single point]"
16,C[N+]1(C2CCC3CCC2C3O)CCCC1 (stereo not drawn),inactive
17,COC(=O)c1sc(N)c(C(=O)OC)c1COC(=O)[C@@H](NS(=O)(=O)c1cccc(Cl)c1)C(C)C,"inconclusive: 15.8 µM [fluorescent, side channel, single point]"
18,Cc1ccc(C(=O)Nc2ccc(NC(=O)c3cccs3)cc2)cc1[N+](=O)[O-],"inconclusive: 12.6 µM [fluorescent, full curve, poor fit]"
19,Oc1ccc(/C=C/c2cnccn2)cc1,"inconclusive: 39.8 µM [fluorescent, side channel, single point]"

row,SMILES,Potency
1,COc1ccc2c(C)cc(=O)[nH]c2c1,inactive
2,CCN(CC)c1ccc2nc3ccccc3[n+](CC)c2c1,"inconclusive: 70.8 µM [quencher, side channel, single point]"
3,CCN(CC)CCNc1nc2cc(OC)c(OC)cc2c2nc(-c3ccccc3)nn12,"inconclusive: 39.8 µM [quencher, side channel, partial curve]"
4,COc1ccccc1C(=O)Nc1ccc(-c2nnn(CC(=O)N3CCN(C(=O)c4ccco4)CC3)n2)cc1,"inconclusive: 63.1 µM [fluorescent, side channel, single point]"
5,O=C(NNC(=O)c1cc2cc(Br)ccc2oc1=O)c1ccc(O)cc1,"inconclusive: 63.1 µM [quencher, side channel, single point]"
6,Cc1noc(NS(=O)(=O)c2ccc(NC(=O)CC34CC5CC(CC(Br)(C5)C3)C4)cc2)c1C,inactive
7,C#CCOCCOCCOCCNc1nc(N2CCN(C(=O)[C@H](CCCCN)n3cc([C@@H](N)C(C)CC)nn3)CC2)nc(N2CCN(C(=O)[C@H](CCCCN)n3cc([C@@H](N)CO)nn3)CC2)n1 (stereo partly drawn),active: 79.4 µM
8,C=CCN1CCN(C(c2cccc(OC)c2OC)c2nnnn2CCC(C)C)CC1 (stereo not drawn),"inconclusive: 11.2 µM [fluorescent, side channel, partial curve]"
9,O=C(COc1ccc2c(c1)C(=O)CC1(CCCCC1)O2)NCc1ccccn1,inactive
10,O=C(O)c1ccc(CSc2nc3ccccc3c(=O)n2-c2ccccc2)cc1,inactive
11,COc1ccc(CCC(=O)Nc2ccc(C)c([N+](=O)[O-])c2)cc1,"inconclusive: 28.2 µM [quencher, side channel, partial curve]"
12,Cn1c2ccccc2c2cc(/C=N/NC(=O)c3ccc(O)cc3O)ccc21,"inconclusive: 17.8 µM [fluorescent, side channel, full curve]"
13,O=C(NC(=S)Nc1ccc(NC(=O)c2cccs2)cc1)c1cc2ccccc2o1,"inconclusive: 1.41 µM [fluorescent, side channel, full curve, poor fit]"
14,CCOc1cccc(C(=O)Nc2cccc(C(C)=O)c2)c1,"inconclusive: 1 µM [fluorescent, side channel, full curve, poor fit]"
15,COc1cccc(/C=C/C(=O)c2c(O)cc(C)oc2=O)c1O,"inconclusive: 31.6 µM [inhibitor, partial curve, poor fit]"
16,Cc1ccc(S(=O)(=O)NCC(c2ccco2)N2CCOCC2)cc1 (stereo not drawn),inactive
17,CCOC(=O)NC1(C(F)(F)F)C(=O)NC(C)=C1C(=O)OC (stereo not drawn),"inconclusive: 70.8 µM [fluorescent, side channel, single point]"
18,COC(=O)c1ccc(/C=N/NC(=O)c2cccc(F)c2)cc1,"inconclusive: 1.26 µM [fluorescent, side channel, partial curve, poor fit]"
19,COc1ccc(CC(C)NS(=O)(=O)c2ccc3c(c2)CCN3S(C)(=O)=O)cc1OC (stereo not drawn),inactive

# Looked up by structure from the list above:
row,SMILES,Potency
12,Cn1c2ccccc2c2cc(/C=N/NC(=O)c3ccc(O)cc3O)ccc21,"inconclusive: 17.8 µM [fluorescent, side channel, full curve]"
16,Cc1ccc(S(=O)(=O)NCC(c2ccco2)N2CCOCC2)cc1 (stereo not drawn),inactive
10,O=C(O)c1ccc(CSc2nc3ccccc3c(=O)n2-c2ccccc2)cc1,inactive
